The text below walks through data of article PMC12191679.

Chains of the proteins cited; added tags and fusions are not shown.
UniProt Q5SYB0: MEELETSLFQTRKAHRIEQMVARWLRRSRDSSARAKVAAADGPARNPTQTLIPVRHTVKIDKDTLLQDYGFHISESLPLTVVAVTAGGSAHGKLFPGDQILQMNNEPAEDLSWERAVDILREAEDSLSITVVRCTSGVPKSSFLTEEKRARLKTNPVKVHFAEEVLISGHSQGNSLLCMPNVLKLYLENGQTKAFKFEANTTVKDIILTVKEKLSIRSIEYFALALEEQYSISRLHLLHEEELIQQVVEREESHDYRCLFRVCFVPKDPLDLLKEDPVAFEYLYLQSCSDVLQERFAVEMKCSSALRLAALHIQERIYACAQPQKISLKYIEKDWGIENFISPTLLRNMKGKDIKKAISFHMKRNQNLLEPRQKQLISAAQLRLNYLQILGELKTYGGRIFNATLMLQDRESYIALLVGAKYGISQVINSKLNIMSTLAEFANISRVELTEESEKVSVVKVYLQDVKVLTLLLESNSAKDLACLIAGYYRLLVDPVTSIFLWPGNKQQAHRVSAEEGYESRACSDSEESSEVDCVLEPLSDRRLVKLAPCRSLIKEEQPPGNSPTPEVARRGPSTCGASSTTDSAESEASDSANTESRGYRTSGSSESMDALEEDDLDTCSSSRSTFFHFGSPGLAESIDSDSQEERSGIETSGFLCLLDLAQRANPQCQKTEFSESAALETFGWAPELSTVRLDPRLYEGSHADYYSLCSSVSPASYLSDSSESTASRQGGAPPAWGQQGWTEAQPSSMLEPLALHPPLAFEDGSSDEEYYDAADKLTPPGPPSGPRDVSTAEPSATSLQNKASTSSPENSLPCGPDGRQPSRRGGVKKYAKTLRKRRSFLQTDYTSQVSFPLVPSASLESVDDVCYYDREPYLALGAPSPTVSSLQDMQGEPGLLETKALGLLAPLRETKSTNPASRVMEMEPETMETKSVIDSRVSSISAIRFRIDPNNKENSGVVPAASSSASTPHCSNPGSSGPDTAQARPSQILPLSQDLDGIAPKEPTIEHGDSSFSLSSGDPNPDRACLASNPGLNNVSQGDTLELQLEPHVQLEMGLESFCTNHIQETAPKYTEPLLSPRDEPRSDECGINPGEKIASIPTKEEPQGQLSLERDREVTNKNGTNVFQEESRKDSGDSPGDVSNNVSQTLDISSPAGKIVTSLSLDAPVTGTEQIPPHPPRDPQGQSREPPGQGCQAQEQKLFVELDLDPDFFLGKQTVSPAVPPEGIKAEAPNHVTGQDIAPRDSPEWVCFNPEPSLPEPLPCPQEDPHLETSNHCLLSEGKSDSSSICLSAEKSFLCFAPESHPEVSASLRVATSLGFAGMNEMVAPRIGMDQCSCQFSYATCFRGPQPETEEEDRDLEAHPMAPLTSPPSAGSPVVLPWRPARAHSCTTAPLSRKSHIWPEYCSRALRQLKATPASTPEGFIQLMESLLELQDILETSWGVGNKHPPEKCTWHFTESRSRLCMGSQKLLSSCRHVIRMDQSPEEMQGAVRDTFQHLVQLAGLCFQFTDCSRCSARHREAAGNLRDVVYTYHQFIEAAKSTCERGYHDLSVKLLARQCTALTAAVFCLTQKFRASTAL

These are yes or no findings as the source states them, for the method shown. In cells and extracts the contact can be indirect. Some binding calls cover weakened binding; strength is not graded here. For some assays here: Where a sequence is shown, tags or fusion partners need not be part of it.

Assay [1] deals with T1, Flag-FBXO10 (human) (UniProt Q9UK96).
T1 sequence: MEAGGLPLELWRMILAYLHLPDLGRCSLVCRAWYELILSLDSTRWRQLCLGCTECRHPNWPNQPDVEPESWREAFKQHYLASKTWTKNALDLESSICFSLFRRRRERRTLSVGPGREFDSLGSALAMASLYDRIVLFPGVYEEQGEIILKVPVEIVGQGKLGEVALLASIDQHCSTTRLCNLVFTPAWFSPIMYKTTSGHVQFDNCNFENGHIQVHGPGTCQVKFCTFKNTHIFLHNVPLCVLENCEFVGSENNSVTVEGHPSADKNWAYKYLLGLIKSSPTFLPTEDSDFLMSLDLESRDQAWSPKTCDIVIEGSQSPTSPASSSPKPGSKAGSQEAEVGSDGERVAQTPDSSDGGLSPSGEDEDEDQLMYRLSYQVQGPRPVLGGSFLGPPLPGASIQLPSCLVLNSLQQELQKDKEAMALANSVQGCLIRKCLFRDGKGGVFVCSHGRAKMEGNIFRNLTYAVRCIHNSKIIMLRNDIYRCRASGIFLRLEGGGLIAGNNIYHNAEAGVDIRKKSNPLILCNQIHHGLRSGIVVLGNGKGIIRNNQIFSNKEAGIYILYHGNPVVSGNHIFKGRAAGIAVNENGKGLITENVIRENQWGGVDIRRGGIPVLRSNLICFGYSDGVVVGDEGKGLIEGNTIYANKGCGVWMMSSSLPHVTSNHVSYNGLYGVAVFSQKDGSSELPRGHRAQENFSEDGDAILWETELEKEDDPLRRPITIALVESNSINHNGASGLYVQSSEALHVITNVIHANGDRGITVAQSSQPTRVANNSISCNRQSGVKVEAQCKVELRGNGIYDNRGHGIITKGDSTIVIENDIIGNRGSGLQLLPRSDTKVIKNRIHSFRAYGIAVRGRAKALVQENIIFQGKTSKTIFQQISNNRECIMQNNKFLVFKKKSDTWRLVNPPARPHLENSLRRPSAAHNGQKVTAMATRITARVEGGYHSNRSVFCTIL
The assay can be described thus: co-IP; HEK-293T cells transfected 24 h with Flag-FBXO10, lysed in NETN buffer; Anti-Flag Affinity Gel 4 h, three washes with NETN; immunoblot with FRMPD1 and Flag antibodies.

Assay [2] addresses T2, FBXO10 (endogenous, HepG2) (human (endogenous in HepG2)) (UniProt Q9UK96).
T2 sequence: T1 sequence
The assay can be described thus: co-IP; endogenous proteins in HepG2 cells lysed in NETN buffer; immunoprecipitation with an antibody against FBXO10; immunoblot. (A western blot detects proteins with antibodies after separation by electrophoresis.)

On to “FRMPD1 (endogenous, HEK-293T) (from UniProt Q5SYB0 1-1578)”, for which the binding entry in assay [1] was “binds”.

Regarding “FRMPD1 (endogenous, HepG2) (from UniProt Q5SYB0 1-1578)”, in assay [2], the binding result was “binds”.
